PubChem BioAssay AID1259307 – Sanger Institute | 2017

- Aim: 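Identify kinases needed for SW620 growth or enhancing BYL719, cetuximab or trametinib effects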 (primary screen)
- Cells: SW620 colorectal cancer cells
- Reagent: siRNA pool against human genes
- Challenge: anchor drugs BYL719 at 1 µM, cetuximab at 5 µg/ml or trametinib at 10 nM, each beside a DMSO vehicle arm
- Measured: 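Per-well viability versus non-targeting control pool, replicate-averaged, robust z-score from controls; synergy scores for BYL719 1 µM, cetuximab 5 µg/ml, trametinib 10 nM against DMSO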
- Scale: viability robust z-score, no drug: higher = more viable cells
- Call rule: 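a knock-down counts as lethal alone if its drug-free robust viability z-score is lower than -3, regardless of synergy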
- Calls: active = essential (lethal alone); inactive = no change alone
Shown is an unselected part of 794 deposited reagents. In the full data, 15 (1.9%) were called active. 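Calls reflect lethality without any drug; synergy scores did not enter the calls.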 Further read-outs or replicates are left out here. No sequences are given here. Not stated in the record: the amount of reagent, the time to read-out.

For DDR1 (discoidin domain receptor tyrosine kinase 1), what was measured?
viability robust z-score, no drug: 0.736; Call: inactive

Which result is listed for PDIK1L (PDLIM1 interacting kinase 1 like)?
viability robust z-score, no drug: 0.736; Call: inactive

What is on record for EPHB2 (EPH receptor B2)?
viability robust z-score, no drug: -0.0968; Call: inactive

What is on record for PTK6 (protein tyrosine kinase 6)?
viability robust z-score, no drug: 0.197; Call: inactive

With SGK3 (serum/glucocorticoid regulated kinase family member 3), what does the deposit list?
viability robust z-score, no drug: 0.736; Call: inactive

Ordered by “viability robust z-score, no drug” (low to high): some entries from above
EPHB2 (EPH receptor B2): viability robust z-score, no drug = -0.0968; Call = inactive
PDIK1L (PDLIM1 interacting kinase 1 like): viability robust z-score, no drug = 0.736; Call = inactive

More entries follow.
How did the screen score RIOK2 (RIO kinase 2)?
viability robust z-score, no drug: -0.942; Call: inactive

With PAK2 (p21 (RAC1) activated kinase 2), what does the deposit list?
viability robust z-score, no drug: 0.337; Call: inactive

What is on record for IKBKE (inhibitor of nuclear factor kappa B kinase subunit epsilon)?
viability robust z-score, no drug: 0.736; Call: inactive

With STRADB (STE20 related adaptor beta), what was measured?
viability robust z-score, no drug: 0.736; Call: inactive

For MAPK3 (mitogen-activated protein kinase 3), what was measured?
viability robust z-score, no drug: 0.377; Call: inactive

What is on record for TESK2 (testis associated actin remodelling kinase 2)?
viability robust z-score, no drug: 0.736; Call: inactive

What did the screen give for DGKG (diacylglycerol kinase gamma)?
viability robust z-score, no drug: -0.647; Call: inactive
